Experimental data from the supplement of paper PMC12819154, “High-throughput peptide-centric local stability assay extends protein–ligand identification to membrane proteins, tissues and bacteria” (Nature Structural & Molecular Biology, 2025).
This is one part of the list. Most values lie at the level of the controls, where differences are scatter.

Chains of the proteins cited; added tags and fusions are not shown. Lines headed by an entry give the natural chain unless they say otherwise; changes in a name come on top.
UniProt O88851: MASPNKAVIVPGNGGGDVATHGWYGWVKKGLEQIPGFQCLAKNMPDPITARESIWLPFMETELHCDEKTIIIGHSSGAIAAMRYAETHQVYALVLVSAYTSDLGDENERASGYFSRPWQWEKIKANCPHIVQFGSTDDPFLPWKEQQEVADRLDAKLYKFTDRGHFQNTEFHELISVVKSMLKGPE
UniProt O54833, whole entry: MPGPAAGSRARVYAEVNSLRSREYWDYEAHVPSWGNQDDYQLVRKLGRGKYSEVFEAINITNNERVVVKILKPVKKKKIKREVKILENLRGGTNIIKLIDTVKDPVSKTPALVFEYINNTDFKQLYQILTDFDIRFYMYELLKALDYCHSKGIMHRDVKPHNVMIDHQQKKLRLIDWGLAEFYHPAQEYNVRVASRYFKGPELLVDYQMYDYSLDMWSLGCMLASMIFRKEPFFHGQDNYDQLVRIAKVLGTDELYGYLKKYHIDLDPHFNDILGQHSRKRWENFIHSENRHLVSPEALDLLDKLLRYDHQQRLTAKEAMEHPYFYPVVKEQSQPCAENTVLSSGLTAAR
UniProt O55176: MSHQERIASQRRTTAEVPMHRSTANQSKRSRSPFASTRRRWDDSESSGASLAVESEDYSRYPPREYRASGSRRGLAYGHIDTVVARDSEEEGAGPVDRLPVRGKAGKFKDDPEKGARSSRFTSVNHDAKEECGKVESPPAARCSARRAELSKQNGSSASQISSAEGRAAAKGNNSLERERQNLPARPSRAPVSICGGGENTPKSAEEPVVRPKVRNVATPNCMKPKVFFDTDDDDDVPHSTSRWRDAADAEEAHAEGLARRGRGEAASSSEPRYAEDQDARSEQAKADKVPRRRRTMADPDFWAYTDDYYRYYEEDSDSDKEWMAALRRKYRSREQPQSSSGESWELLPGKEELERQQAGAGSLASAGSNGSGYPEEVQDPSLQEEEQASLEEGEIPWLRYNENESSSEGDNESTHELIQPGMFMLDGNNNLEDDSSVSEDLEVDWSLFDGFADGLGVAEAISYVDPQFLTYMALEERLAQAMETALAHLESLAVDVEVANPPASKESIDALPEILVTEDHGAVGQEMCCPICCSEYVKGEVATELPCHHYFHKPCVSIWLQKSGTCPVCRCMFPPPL
UniProt O55134: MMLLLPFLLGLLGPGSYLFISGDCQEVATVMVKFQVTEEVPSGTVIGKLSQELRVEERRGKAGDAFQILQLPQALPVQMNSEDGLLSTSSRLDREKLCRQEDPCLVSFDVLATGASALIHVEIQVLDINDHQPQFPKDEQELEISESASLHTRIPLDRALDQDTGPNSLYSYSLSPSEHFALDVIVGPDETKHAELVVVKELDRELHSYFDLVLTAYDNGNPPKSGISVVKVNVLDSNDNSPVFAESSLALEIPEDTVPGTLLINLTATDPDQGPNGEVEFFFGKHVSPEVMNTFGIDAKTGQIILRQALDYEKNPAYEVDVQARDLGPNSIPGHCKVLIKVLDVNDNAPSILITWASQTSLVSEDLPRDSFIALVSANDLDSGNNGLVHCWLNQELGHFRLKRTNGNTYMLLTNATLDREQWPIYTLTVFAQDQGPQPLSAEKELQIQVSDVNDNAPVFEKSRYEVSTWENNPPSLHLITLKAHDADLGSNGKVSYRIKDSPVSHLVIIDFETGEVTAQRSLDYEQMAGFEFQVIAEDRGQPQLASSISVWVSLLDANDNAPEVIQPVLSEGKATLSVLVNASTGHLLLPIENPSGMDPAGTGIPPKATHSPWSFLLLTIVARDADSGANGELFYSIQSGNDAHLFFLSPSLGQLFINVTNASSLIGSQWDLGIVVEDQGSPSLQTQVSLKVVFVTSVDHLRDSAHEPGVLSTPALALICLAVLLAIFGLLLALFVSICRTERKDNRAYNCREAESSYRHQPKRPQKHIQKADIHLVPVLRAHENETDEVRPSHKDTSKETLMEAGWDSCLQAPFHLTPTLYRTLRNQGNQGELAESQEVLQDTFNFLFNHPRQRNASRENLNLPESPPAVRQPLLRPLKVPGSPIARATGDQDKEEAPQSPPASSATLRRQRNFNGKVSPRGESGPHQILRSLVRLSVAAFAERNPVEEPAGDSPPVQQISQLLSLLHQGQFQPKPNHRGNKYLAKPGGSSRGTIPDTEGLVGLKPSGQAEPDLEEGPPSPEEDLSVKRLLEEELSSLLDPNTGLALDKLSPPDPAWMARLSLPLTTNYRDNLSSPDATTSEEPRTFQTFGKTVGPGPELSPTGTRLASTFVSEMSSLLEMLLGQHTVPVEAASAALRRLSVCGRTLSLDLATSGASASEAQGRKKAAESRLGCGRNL
UniProt O70570: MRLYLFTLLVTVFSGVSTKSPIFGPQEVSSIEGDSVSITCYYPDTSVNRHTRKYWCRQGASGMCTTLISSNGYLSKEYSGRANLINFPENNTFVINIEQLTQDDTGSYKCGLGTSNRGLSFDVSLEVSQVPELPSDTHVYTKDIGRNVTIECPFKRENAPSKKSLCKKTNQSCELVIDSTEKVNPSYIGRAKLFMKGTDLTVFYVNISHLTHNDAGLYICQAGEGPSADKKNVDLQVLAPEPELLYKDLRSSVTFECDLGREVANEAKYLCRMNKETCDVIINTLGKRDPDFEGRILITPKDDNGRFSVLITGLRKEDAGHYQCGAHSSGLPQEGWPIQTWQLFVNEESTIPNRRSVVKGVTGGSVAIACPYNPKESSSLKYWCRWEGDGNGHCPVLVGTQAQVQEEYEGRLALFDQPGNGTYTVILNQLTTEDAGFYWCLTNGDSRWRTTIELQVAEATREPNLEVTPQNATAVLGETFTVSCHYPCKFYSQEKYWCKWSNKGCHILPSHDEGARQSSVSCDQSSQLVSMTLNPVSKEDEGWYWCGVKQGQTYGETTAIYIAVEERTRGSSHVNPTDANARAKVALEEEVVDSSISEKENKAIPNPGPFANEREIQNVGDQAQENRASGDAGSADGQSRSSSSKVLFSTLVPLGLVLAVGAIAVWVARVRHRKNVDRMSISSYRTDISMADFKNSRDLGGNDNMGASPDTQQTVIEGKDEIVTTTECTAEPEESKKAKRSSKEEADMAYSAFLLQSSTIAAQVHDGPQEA
UniProt O54992: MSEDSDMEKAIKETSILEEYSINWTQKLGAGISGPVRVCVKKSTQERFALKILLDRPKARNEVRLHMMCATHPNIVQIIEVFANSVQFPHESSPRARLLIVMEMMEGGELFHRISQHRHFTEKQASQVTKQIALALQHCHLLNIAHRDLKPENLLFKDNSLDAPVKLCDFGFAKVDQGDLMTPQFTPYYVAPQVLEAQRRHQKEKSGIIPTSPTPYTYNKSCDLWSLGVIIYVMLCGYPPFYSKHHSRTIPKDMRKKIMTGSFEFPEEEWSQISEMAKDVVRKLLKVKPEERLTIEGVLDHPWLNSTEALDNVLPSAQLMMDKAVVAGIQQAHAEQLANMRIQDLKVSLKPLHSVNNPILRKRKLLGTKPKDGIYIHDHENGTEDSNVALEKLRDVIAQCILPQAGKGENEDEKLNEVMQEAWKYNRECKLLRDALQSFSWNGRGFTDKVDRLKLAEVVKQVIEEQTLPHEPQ
UniProt O88329, whole entry: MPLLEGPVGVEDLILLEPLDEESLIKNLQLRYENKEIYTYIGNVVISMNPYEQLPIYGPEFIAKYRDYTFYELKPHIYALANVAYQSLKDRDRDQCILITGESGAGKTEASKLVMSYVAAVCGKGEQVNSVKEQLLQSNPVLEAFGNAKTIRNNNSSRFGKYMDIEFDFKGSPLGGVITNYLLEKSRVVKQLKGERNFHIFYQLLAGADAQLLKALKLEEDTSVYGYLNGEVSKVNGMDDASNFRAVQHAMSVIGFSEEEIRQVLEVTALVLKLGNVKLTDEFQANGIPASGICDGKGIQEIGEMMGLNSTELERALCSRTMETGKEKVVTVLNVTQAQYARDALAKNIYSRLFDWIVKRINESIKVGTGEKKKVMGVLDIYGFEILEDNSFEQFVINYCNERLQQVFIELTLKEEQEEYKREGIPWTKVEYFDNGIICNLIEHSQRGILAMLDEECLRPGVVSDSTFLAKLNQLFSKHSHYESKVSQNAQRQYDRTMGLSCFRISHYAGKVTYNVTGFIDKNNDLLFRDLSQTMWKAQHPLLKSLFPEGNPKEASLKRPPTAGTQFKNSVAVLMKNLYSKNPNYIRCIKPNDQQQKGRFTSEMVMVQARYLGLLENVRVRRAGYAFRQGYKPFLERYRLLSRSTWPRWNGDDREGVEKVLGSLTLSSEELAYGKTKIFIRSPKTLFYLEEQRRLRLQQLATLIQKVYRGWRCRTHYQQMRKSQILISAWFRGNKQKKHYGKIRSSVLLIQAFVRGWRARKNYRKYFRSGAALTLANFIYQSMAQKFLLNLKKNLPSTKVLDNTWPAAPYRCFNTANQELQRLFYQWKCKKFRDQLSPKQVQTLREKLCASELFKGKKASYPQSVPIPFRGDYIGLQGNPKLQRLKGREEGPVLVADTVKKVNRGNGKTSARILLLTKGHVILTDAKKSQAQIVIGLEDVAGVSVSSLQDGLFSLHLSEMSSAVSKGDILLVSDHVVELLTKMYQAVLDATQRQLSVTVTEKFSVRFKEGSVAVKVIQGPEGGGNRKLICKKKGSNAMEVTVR
UniProt O88447: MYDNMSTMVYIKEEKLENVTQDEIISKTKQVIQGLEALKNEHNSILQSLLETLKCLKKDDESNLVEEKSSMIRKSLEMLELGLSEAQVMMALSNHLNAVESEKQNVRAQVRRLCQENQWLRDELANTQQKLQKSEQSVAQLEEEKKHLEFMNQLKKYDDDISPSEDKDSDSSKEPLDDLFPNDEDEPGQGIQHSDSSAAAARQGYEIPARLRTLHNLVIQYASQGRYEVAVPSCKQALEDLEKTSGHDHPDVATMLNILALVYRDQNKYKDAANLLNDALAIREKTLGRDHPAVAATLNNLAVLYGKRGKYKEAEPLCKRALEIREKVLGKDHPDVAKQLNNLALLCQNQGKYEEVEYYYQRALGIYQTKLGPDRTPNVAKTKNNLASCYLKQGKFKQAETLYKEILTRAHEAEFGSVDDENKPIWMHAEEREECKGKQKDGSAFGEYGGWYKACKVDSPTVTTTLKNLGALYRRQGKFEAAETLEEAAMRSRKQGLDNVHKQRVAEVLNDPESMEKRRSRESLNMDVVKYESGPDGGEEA
UniProt O55239: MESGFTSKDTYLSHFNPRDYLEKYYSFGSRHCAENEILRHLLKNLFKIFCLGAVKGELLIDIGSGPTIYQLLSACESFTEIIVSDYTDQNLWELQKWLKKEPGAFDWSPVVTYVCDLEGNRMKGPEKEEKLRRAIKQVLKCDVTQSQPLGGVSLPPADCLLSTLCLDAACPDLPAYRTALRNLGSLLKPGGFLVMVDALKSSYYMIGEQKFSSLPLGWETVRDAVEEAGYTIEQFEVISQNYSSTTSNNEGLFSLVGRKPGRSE
UniProt O55128: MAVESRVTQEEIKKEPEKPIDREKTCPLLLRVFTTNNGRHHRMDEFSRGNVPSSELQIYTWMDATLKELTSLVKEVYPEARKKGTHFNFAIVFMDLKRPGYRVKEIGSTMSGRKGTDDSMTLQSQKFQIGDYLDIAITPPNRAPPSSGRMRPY
UniProt O35728: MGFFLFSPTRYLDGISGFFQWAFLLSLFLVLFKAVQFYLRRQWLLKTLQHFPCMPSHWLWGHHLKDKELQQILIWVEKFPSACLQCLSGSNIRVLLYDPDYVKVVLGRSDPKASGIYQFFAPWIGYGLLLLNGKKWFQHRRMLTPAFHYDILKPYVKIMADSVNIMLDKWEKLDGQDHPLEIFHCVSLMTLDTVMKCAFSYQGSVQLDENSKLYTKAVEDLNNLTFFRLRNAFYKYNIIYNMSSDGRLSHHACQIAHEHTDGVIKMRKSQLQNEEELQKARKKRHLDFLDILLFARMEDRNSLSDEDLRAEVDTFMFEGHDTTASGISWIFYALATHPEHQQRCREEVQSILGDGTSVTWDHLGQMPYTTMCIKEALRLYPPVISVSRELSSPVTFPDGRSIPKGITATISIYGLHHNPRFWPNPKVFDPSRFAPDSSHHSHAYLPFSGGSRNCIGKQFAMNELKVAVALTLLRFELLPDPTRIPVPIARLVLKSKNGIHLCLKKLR
UniProt O88829: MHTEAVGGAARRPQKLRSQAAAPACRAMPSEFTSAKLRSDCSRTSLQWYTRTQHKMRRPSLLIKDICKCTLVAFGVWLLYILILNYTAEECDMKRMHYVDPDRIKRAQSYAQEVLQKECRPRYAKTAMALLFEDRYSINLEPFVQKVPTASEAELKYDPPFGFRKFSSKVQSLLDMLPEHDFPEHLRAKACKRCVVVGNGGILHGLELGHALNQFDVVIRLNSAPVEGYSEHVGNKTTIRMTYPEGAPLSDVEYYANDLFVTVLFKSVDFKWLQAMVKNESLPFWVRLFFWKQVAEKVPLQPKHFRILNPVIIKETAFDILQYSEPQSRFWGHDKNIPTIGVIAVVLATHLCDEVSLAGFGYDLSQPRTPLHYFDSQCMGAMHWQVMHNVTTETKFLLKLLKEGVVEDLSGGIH

What follows are targets tested with CN[C@@H]1C[C@H]2O[C@@](C)([C@@H]1OC)n1c3ccccc3c3c4c(c5c6ccccc6n2c5c31)C(=O)NC4 [staurosporine] (assay: log2 fold change of tryptic peptide abundance, ligand vs vehicle (limited proteolysis) (log2 ratio); higher = more trypsin-susceptible (destabilized)). Conditions: ligand concentration: 20 uM; sample: mouse liver crude lysate; replicate design: treated separately.
For “UniProt O88425 (peptide sequence: YIAPDSIR, peptide start residue: 109)”, the log2 fold change was -0.193.
“UniProt O88851 (peptide sequence: GHFQNTEFHELISVVK, peptide start residue: 164)” gave a log2 fold change of -0.303.
Target “UniProt O70585 (peptide sequence: LRLEHEQASQPTPEK, peptide start residue: 457)” has a log2 fold change of -0.246.
With “UniProt O54940 (peptide sequence: TLLAVTRPFISSK, peptide start residue: 255)” the log2 fold change was 0.443.
“UniProt O35717 (peptide sequence: CLEPSGNGADR, peptide start residue: 5)” gave a log2 fold change of 0.57.
Work on “UniProt O54833 (peptide sequence: VYAEVNSLR, peptide start residue: 12)” yielded a log2 fold change of 0.0133.
In the case of “UniProt O55176 (peptide sequence: TTAEVPMHR, peptide start residue: 13)”, the log2 fold change is reported as 0.182.
With “UniProt O70200 (peptide sequence: THLELKR, peptide start residue: 82)” the log2 fold change was -0.15.
For “UniProt O55143 (peptide sequence: VGSTKVPMTPGVK, peptide start residue: 529)”, the log2 fold change was 0.233.
“UniProt O88623 (peptide sequence: ASPETLDHLPDEEKGR, peptide start residue: 396)” gave a log2 fold change of 0.444.
For “UniProt O70481 (peptide sequence: KPGVSGHGVYELK, peptide start residue: 812)”, the log2 fold change was -0.411.
“UniProt O55055 (peptide sequence: IGLQGDMTDPR, peptide start residue: 85)” showed a log2 fold change of -0.221.
“UniProt O55134 (peptide sequence: AHENETDEVRPSHK, peptide start residue: 783)” gave a log2 fold change of -0.328.
“UniProt O54826 (peptide sequence: TCYICDEQGR, peptide start residue: 136)” was tested, and the log2 fold change was -0.51.
In the case of “UniProt O70570 (peptide sequence: VALEEEVVDSSISEKENK, peptide start residue: 585)”, the log2 fold change is reported as -0.0859.
With “UniProt O54992 (peptide sequence: LCDFGFAK, peptide start residue: 167)” the log2 fold change was -0.507.
With “UniProt O88322 (peptide sequence: DDQYVPQCDDLGHFIPLQCHGK, peptide start residue: 1064)” the log2 fold change was -0.191.
Work on “UniProt O88792 (peptide sequence: VIYSQPSTR, peptide start residue: 279)” yielded a log2 fold change of -0.0993.
With “UniProt O70311 (peptide sequence: MYHKNPTIPIQK, peptide start residue: 110)” the log2 fold change was -0.0792.
For “UniProt O70480 (peptide sequence: HLNDDDVTGSVK, peptide start residue: 8)”, the log2 fold change was 0.0713.
With “UniProt O88329 (peptide sequence: YLGLLENVR, peptide start residue: 618)” the log2 fold change was -0.149.
“UniProt O70472 (peptide sequence: TSPLVSETAAATQGHTASR, peptide start residue: 1256)” was tested, and the log2 fold change was 0.32.
In the case of “UniProt O55127 (peptide sequence: LNPPVPGGFR, peptide start residue: 366)”, the log2 fold change is reported as 0.309.
Target “UniProt O88447 (peptide sequence: HLEFMNQLK, peptide start residue: 147)” has a log2 fold change of 0.386.
Target “UniProt O55239 (peptide sequence: DTYLSHFNPR, peptide start residue: 9)” has a log2 fold change of 0.18.
“UniProt O55128 (peptide sequence: VKEIGSTMSGR, peptide start residue: 103)” showed a log2 fold change of 0.152.
Work on “UniProt O35728 (peptide sequence: FAPDSSHHSHAYLPFSGGSR, peptide start residue: 433)” yielded a log2 fold change of 0.418.
“UniProt O55240 (peptide sequence: VVNITSVLGR, peptide start residue: 158)” showed a log2 fold change of 0.158.
Work on “UniProt O88829 (peptide sequence: ILNPVIIK, peptide start residue: 307)” yielded a log2 fold change of -0.215.
In the case of “UniProt O88572 (peptide sequence: LYWADAK, peptide start residue: 4060)”, the log2 fold change is reported as -0.179.
“UniProt O70258 (peptide sequence: DMQTPDIQLVHHSSIQK, peptide start residue: 350)” was tested, and the log2 fold change was 0.182.
